Measured values from article PMC11024185.
Results are given in words; binding and its absence hold for the method and conditions named. In cells and extracts the contact can be indirect. Here binding means that the protein was enriched with, or labelled near, the bait; the list need not be complete. Tags and fused reporters may be left off the sequences shown.

How the values were obtained:
[1] = biological target: T1, Ssf1-3xFLAG-3C-2xProteinA (S. cerevisiae) (UniProt P38789); experiment: affinity purification with mass spectrometry; split-tag purification of pre-60S particles from yeast overexpressing dbp10 R522V (β-estradiol, 1 h): IgG Sepharose on Ssf1-2xProteinA, 3C cleavage, then Strep-Tactin on Dbp10 R522V, bdNEDD8 protease elution; 50 mM Bis-Tris-Propane pH 8.0, 125 mM NaCl, 25 mM KCl, 10 mM MgCl2; Coomassie-stained 4-20% SDS-PAGE, bands named by molecular weight, ambiguous bands by mass spectrometry
T1 sequence: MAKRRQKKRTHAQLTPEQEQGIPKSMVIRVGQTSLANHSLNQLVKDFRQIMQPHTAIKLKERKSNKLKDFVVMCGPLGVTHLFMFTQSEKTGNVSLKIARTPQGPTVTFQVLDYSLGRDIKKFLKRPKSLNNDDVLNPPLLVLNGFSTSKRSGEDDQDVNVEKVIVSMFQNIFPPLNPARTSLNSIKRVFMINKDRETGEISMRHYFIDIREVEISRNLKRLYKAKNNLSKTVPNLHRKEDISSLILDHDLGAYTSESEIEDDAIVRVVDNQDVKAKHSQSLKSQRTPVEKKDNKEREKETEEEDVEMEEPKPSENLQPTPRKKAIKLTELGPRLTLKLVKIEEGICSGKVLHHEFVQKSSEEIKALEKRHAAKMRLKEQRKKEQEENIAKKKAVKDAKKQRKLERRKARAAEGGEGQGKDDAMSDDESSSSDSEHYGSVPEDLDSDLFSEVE

[2] = biological target: T1, Ssf1-3xFLAG-3C-2xProteinA (S. cerevisiae); experiment: affinity purification with mass spectrometry; split-tag purification of pre-60S particles from steady state DBP10 yeast: IgG Sepharose on Ssf1-2xProteinA, 3C cleavage, then Strep-Tactin on 2xStrep-Dbp10, desthiobiotin elution; buffers with 50 µM ADP-BeF3; Coomassie-stained 4-20% SDS-PAGE, bands named by molecular weight, ambiguous bands by mass spectrometry
[3] = biological target: T1, Ssf1-3xFLAG-3C-2xProteinA (S. cerevisiae); experiment: affinity purification with mass spectrometry; purification of pre-60S intermediates from a drs1 R569Q strain by tags on Drs1 R569Q (3x-Strep) and Ssf1 (2x-ProtA); Coomassie-stained 4-20% SDS-PAGE
[4] = biological target: T2, Noc2-3xFLAG-3C-2xProteinA (S. cerevisiae) (UniProt P39744); experiment: affinity purification with mass spectrometry; split-tag purification of pre-60S particles from SPB4-AID yeast without and with auxin (0.5 mM IAA, 45 min): IgG Sepharose on Noc2-2xProteinA, 3C cleavage, then Strep-Tactin on 2xStrep-Dbp10; buffers with 50 µM ADP-BeF3; Coomassie-stained 4-20% SDS-PAGE, bands named by molecular weight, ambiguous bands by mass spectrometry; auxin gave ~10-fold enrichment of the particle
T2 sequence: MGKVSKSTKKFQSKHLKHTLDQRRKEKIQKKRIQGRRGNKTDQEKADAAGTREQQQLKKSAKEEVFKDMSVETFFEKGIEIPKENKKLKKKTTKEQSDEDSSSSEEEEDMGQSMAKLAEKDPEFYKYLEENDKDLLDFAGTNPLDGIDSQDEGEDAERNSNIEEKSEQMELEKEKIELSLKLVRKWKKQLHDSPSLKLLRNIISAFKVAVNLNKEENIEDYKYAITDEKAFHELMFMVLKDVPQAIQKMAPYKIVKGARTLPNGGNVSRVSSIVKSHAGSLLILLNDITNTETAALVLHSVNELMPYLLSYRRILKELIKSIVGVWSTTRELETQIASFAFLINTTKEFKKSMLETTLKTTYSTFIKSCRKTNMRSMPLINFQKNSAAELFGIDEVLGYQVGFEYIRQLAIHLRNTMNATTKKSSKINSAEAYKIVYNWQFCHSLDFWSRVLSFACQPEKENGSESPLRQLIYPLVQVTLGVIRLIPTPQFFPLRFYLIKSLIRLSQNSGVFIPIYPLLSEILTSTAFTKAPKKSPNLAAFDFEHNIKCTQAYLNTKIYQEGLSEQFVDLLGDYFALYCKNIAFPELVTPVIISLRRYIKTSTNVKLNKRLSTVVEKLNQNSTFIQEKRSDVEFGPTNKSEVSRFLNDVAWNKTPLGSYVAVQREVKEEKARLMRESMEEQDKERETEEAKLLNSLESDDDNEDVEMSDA

[5] = biological target: T3, Dbp10 (2xStrep-bdNEDD8-DBP10) (S. cerevisiae) (UniProt Q12389); experiment: as above
T3 sequence: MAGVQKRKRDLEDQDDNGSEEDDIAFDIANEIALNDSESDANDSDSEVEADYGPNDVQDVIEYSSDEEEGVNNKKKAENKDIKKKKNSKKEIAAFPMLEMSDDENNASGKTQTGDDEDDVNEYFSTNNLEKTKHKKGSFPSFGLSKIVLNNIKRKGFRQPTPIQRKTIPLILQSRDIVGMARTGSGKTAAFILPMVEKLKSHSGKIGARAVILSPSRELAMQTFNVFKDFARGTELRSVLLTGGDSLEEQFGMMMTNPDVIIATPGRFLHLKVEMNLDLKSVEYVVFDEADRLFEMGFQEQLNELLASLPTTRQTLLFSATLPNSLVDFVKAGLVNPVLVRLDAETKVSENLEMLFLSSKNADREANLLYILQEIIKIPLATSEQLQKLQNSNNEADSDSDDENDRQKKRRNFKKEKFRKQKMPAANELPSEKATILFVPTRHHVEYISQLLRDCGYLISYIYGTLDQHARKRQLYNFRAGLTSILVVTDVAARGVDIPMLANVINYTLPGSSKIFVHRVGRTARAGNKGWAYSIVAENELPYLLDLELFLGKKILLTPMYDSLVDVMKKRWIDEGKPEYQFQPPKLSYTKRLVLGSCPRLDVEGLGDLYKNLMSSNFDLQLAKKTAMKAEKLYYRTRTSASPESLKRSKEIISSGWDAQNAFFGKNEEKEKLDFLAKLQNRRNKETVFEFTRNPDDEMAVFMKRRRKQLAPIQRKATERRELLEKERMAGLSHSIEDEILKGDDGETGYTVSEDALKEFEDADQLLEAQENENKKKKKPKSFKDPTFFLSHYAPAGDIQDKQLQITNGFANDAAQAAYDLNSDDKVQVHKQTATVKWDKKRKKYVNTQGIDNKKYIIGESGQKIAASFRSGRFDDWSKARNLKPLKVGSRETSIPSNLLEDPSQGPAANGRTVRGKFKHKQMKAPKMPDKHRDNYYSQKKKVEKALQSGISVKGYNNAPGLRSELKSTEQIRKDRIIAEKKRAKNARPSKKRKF

Measured: binding

B1: Nop2 (protein, UniProt P40991 1-618)
chain: MGSRRHKNKQAAPPTLEEFQARKEKKANRKLEKGKRPSTTQGDEVSDRKKKKSKPFKKSRKEEEEVVEEDKDLPEVDLEELSKARKSLFDDEEDDDEAGLVDEELKDEFDLEQEYDYDEDEDNDAHPIFSDDDDEADLEELNAQNMEALSKKLDEEEAEEAEEAEMELVEAENMQPRADILPTEEQEEMMAQETPNLTSTRTRMIEIVKVLENFKTLGAEGRSRGEYVDRLLKDICEYFGYTPFLAEKLFNLFSPAEAMEFFEANEIARPITIRTNTLKTRRRDLAQTLVNRGVNLQPIGSWTKVGLQIFDSQVPIGATPEYLAGHYILQAASSFLPVIALDPHENERILDMAAAPGGKTTYISAMMKNTGCVFANDANKSRTKSLIANIHRLGCTNTIVCNYDAREFPKVIGGFDRILLDAPCSGTGVIGKDQSVKVSRTEKDFIQIPHLQKQLLLSAIDSVDCNSKHGGVIVYSTCSVAVEEDEAVIDYALRKRPNVKLVDTGLAIGKEAFTSYRGKKFHPSVKLARRYYPHTYNVDGFFVAKFQKIGPSSFDDNQASAKEKETAARKEALEEGIIHSDFATFEDEEDDKYIEKSVKNNLLKKGVNPKAKRPSNEK
binds: [1] | [2] | [3] | [4]

B2: Noc2-3xFLAG-3C-2xProteinA (protein, UniProt P39744 1-710)
chain: T2 sequence
binds: [5]

B3: Nog1 (protein, UniProt Q02892 1-647)
chain: MQLSWKDIPTVAPANDLLDIVLNRTQRKTPTVIRPGFKITRIRAFYMRKVKYTGEGFVEKFEDILKGFPNINDVHPFHRDLMDTLYEKNHYKISLAAISRAKSLVEQVARDYVRLLKFGQSLFQCKQLKRAALGRMATIVKKLRDPLAYLEQVRQHIGRLPSIDPNTRTLLICGYPNVGKSSFLRCITKSDVDVQPYAFTTKSLYVGHFDYKYLRFQAIDTPGILDRPTEEMNNIEMQSIYAIAHLRSCVLYFMDLSEQCGFTIEAQVKLFHSIKPLFANKSVMVVINKTDIIRPEDLDEERAQLLESVKEVPGVEIMTSSCQLEENVMEVRNKACEKLLASRIENKLKSQSRINNVLNKIHVAQPQARDDVKRTPFIPESVKNLKKYDPEDPNRRKLARDIEAENGGAGVFNVNLKDKYLLEDDEWKNDIMPEILDGKNVYDFLDPEIAAKLQALEEEEEKLENEGFYNSDDEEEIYDGFEASEVDDIKEKAAWIRNRQKTMIAEARNRKSLKNKAIMPRSKLTKSFGKMEEHMSTLGHDMSALQDKQNRAARKNRYVERGSDVVFGDQDALTASTENGVKLRQTDRLLDGVADGSMRSKADRMAKMERRERNRHAKQGESDRHNAVSLSKHLFSGKRGVGKTDFR
binds: [1] | [2] | [3] | [4]
